Source: PubChem BioAssay AID504764 (Drosophila RNAi Screening Center, 2011)

- Purpose: 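Genome-wide screen for regulators of Notch-driven gene expression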 (primary screen)
- System: Drosophila Kc167 cells
- Reagent: long dsRNA against Drosophila genes
- Time to read-out: about 5 days (4 days dsRNA, then 24 h after transfection)
- Treatment: transfection of constitutively active membrane-tethered Notch lacking the extracellular domain, read 24 h later
- Detection: 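Firefly luciferase from an E(spl)m3 reporter with active Notch, plus control-promoter and uninduced reporter wells for normalisation; unnormalised counts, duplicate wells a and b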
- Direction: induced reporter light, run 1, well a and induced reporter light, run 1, well b: higher = more light from the Notch target reporter with active Notch; control promoter light, run 1, well a and control promoter light, run 1, well b: higher = more light from the viral control promoter (cell number, transfection, viability); uninduced reporter light, run 1, well a: higher = more light from the Notch target reporter without active Notch
- Hit rule: 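Wells with low control signal or poorly matching duplicates excluded; duplicates averaged; per source plate, z beyond ±2 for induced/control log2 ratio or beyond ±1.8 for induced/uninduced marks a hit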
- Calls: active = modifier hit (raised or lowered Notch signal); inactive = not a hit
The deposit covers about 22,000 reagents; this is a random part of those with a known target gene and a result. Of all reagents, 403 (1.9%) got an active call. 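Unnormalised raw counts per well; ratio z-scores behind the hit calls and whether each hit raises or lowers signal are not deposited.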 Not stated in the record: the amount of reagent.

Depletion of Cpr92A [DRSC16000] resulted in: induced reporter light, run 1, well a = 1.88e5; induced reporter light, run 1, well b = 1.55e5; control promoter light, run 1, well a = 2.00e5; control promoter light, run 1, well b = 2.01e5; uninduced reporter light, run 1, well a = 15315; inactive.
For Lsp2 [DRSC09841], the entry reads induced reporter light, run 1, well a = 1.69e5; induced reporter light, run 1, well b = 1.42e5; control promoter light, run 1, well a = 2.79e5; control promoter light, run 1, well b = 2.22e5; uninduced reporter light, run 1, well a = 9205; inactive.
Lsp2 [DRSC11216] showed induced reporter light, run 1, well a = 1.96e5; induced reporter light, run 1, well b = 1.60e5; control promoter light, run 1, well a = 3.25e5; control promoter light, run 1, well b = 1.89e5; uninduced reporter light, run 1, well a = 9982; inactive.
For viaf [DRSC10326] the deposit lists induced reporter light, run 1, well a = 1.05e5; induced reporter light, run 1, well b = 99335; control promoter light, run 1, well a = 74240; control promoter light, run 1, well b = 31400; uninduced reporter light, run 1, well a = 8570; inactive.
Depletion of CG5890 [DRSC15909] came out at: induced reporter light, run 1, well a = 1.77e5; induced reporter light, run 1, well b = 1.50e5; control promoter light, run 1, well a = 1.93e5; control promoter light, run 1, well b = 2.19e5; uninduced reporter light, run 1, well a = 13600; inactive.
Wdr62 [DRSC00081] showed induced reporter light, run 1, well a = 1.17e5; induced reporter light, run 1, well b = 1.07e5; control promoter light, run 1, well a = 1.64e5; control promoter light, run 1, well b = 1.40e5; uninduced reporter light, run 1, well a = 9045; inactive.
For Wdr62 [DRSC00082] the deposit lists induced reporter light, run 1, well a = 1.32e5; induced reporter light, run 1, well b = 1.06e5; control promoter light, run 1, well a = 1.73e5; control promoter light, run 1, well b = 2.00e5; uninduced reporter light, run 1, well a = 11985; inactive.
Wdr62 [DRSC00701] gave induced reporter light, run 1, well a = 45540; induced reporter light, run 1, well b = 42075; control promoter light, run 1, well a = 24200; control promoter light, run 1, well b = 29360; uninduced reporter light, run 1, well a = 9455; inactive.
Tango6 [DRSC02671] showed induced reporter light, run 1, well a = 1.24e5; induced reporter light, run 1, well b = 1.26e5; control promoter light, run 1, well a = 1.05e5; control promoter light, run 1, well b = 1.13e5; uninduced reporter light, run 1, well a = 9475; inactive.

2 entries from above, arranged by “control promoter light, run 1, well b”, descending:
CG5890 [DRSC15909] — induced reporter light, run 1, well a = 1.77e5; induced reporter light, run 1, well b = 1.50e5; control promoter light, run 1, well a = 1.93e5; control promoter light, run 1, well b = 2.19e5; uninduced reporter light, run 1, well a = 13600; call = inactive
Wdr62 [DRSC00081] — induced reporter light, run 1, well a = 1.17e5; induced reporter light, run 1, well b = 1.07e5; control promoter light, run 1, well a = 1.64e5; control promoter light, run 1, well b = 1.40e5; uninduced reporter light, run 1, well a = 9045; call = inactive

Next records follow:
After knock-down of CG14223 [DRSC19580], the screen gave induced reporter light, run 1, well a = 1.12e5; induced reporter light, run 1, well b = 1.07e5; control promoter light, run 1, well a = 1.08e5; control promoter light, run 1, well b = 1.73e5; uninduced reporter light, run 1, well a = 10985; inactive.
For ftz-f1 [DRSC11347], the entry reads induced reporter light, run 1, well a = 1.41e5; induced reporter light, run 1, well b = 1.13e5; control promoter light, run 1, well a = 1.47e5; control promoter light, run 1, well b = 1.60e5; uninduced reporter light, run 1, well a = 6642; inactive.
Against CG9164 [DRSC19087], the values are induced reporter light, run 1, well a = 54490; induced reporter light, run 1, well b = 51445; control promoter light, run 1, well a = 30450; control promoter light, run 1, well b = 28100; uninduced reporter light, run 1, well a = 7840; inactive.
Silencing of CG9164 [DRSC20162] came out at: induced reporter light, run 1, well a = 2.24e5; induced reporter light, run 1, well b = 1.96e5; control promoter light, run 1, well a = 2.57e5; control promoter light, run 1, well b = 2.51e5; uninduced reporter light, run 1, well a = 14180; inactive.
With knock-down of puc [DRSC17034], the record shows induced reporter light, run 1, well a = 93395; induced reporter light, run 1, well b = 1.26e5; control promoter light, run 1, well a = 98185; control promoter light, run 1, well b = 1.19e5; uninduced reporter light, run 1, well a = 6845; inactive.
After knock-down of CG3356 [DRSC04358], the record shows induced reporter light, run 1, well a = 1.98e5; induced reporter light, run 1, well b = 1.83e5; control promoter light, run 1, well a = 1.55e5; control promoter light, run 1, well b = 1.76e5; uninduced reporter light, run 1, well a = 13070; inactive.
With knock-down of CG33704 [DRSC03838], the screen gave induced reporter light, run 1, well a = 1.16e5; induced reporter light, run 1, well b = 85035; control promoter light, run 1, well a = 96515; control promoter light, run 1, well b = 1.18e5; uninduced reporter light, run 1, well a = 10070; inactive.
Silencing of CG16739 [DRSC06621] came out at: induced reporter light, run 1, well a = 35990; induced reporter light, run 1, well b = 36880; control promoter light, run 1, well a = 38330; control promoter light, run 1, well b = 52145; uninduced reporter light, run 1, well a = 4220; inactive.
After knock-down of CG32202 [DRSC09989], the screen gave induced reporter light, run 1, well a = 2.07e5; induced reporter light, run 1, well b = 1.96e5; control promoter light, run 1, well a = 2.23e5; control promoter light, run 1, well b = 1.75e5; uninduced reporter light, run 1, well a = 10715; inactive.
